From US20100074896A1, “ANTAGONISTS OF PGE2 EP3 RECEPTORS” (The Johns Hopkins University, priority 2006, published 2010)

Test system: mouse model of middle cerebral artery (MCA) occlusion
Assay: Relative cerebral blood flow by laser-Doppler flowmetry during MCAO
Type: in vivo
Conditions: after insertion of monofilament, vehicle 18.0±3.3

Q: Which results are given for CCCCC[C@@H](/C=C/[C@H]1[C@H](OC)CC(=O)[C@@H]1C/C=C\CCCC(=O)O)OC [ONO-AE-248]?
A: Percent of baseline CBF (0.5 nmol ICV): 18.0±3.7% of baseline; Percent of baseline CBF (2.5 nmol ICV): 17.5±2.0% of baseline; Percent of baseline CBF (5.0 nmol ICV): 17.0±2.7% of baseline
